Assay results as given in PMC3858555.
These are yes or no findings as the source states them, for the method shown. Binding seen in cells or lysates may run through a third protein. Some entries that bind do so weakly or less than the wild type.

The chains behind the UniProt entries cited, without tags or fusion partners. Where a name states a change or a piece, a line headed by the entry shows the natural chain unless it says otherwise. A line that says so, or that is headed by a name, gives the form on record, which may keep a tag or linker.
UniProt Q14247: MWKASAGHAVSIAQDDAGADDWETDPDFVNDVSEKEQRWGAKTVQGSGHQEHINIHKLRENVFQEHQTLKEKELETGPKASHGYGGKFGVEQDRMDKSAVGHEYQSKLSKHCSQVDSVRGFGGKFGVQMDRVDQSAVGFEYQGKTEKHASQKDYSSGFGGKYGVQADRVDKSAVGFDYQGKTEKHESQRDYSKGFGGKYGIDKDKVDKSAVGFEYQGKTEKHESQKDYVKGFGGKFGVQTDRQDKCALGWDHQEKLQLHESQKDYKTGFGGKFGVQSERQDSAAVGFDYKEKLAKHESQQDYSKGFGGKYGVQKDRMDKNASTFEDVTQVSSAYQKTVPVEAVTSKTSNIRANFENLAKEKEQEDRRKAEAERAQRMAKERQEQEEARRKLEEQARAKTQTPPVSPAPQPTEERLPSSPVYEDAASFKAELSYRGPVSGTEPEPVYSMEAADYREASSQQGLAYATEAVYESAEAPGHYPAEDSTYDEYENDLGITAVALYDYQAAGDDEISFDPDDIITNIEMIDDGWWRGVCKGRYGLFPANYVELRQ
MUC1/Y, an isoform of MUC1 lacking most of the extracellular domain (P15941, form named): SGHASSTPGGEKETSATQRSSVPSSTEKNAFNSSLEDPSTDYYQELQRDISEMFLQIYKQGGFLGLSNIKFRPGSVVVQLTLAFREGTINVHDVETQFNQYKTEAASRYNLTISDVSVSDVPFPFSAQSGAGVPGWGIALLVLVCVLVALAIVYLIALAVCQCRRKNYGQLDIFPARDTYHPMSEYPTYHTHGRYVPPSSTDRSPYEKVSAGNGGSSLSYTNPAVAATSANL
UniProt Q96B97: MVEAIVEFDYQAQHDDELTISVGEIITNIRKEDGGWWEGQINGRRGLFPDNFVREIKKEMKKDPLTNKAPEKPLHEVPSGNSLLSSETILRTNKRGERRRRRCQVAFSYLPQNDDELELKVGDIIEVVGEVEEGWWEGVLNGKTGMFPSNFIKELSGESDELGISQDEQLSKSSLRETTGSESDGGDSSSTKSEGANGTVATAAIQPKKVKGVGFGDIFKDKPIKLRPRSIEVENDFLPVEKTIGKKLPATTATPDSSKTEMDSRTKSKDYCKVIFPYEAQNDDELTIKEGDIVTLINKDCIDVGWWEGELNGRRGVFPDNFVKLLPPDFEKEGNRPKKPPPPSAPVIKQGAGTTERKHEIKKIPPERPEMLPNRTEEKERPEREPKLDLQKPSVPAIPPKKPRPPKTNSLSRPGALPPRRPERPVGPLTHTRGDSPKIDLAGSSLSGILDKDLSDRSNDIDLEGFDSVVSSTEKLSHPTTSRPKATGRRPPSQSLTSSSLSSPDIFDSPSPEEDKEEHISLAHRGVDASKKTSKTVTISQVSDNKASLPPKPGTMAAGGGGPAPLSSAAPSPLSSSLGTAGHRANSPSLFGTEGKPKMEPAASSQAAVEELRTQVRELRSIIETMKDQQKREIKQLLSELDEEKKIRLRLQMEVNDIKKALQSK
UniProt Q8R550: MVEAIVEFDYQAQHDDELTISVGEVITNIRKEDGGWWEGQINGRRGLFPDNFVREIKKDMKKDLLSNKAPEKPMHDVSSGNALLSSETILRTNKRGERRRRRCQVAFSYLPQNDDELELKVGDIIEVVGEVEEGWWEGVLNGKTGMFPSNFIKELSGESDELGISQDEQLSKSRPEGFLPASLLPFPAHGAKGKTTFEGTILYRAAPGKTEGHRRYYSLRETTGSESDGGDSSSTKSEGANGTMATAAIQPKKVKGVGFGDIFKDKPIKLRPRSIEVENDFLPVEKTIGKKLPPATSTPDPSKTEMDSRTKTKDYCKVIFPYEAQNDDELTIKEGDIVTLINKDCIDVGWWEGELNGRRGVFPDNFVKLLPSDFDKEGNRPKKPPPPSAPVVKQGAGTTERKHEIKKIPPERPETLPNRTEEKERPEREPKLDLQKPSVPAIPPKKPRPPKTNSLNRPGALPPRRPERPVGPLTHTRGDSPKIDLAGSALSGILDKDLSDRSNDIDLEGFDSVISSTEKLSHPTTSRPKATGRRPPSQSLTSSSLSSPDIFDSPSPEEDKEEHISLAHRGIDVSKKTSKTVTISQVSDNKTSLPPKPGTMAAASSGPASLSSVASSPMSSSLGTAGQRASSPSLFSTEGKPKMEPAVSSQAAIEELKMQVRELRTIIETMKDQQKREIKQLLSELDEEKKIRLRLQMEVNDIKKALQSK

Legend:
[1] = molecular target: cortactin (human (endogenous in MDA-MB-231)) (UniProt Q14247); experiment: co-IP; MDA-MB-231 lysate precipitated with anti-cortactin antibody or control IgG, blotted with anti-MUC1 and anti-CIN85
[2] = molecular target: MUC1/Y, an isoform of MUC1 lacking most of the extracellular domain (human) (UniProt P15941); experiment: co-IP; DM6, B16 and RMA cells stably transfected with MUC1/22TR or MUC1/Y; which antibody precipitated is not told (Supplementary Fig S1)

Row | binding [1] | binding [2] | Substance
1 | binds | binds | CIN85 of human tumor cell lines (from UniProt Q96B97 1-665)
2 |  | binds | CIN85 of mouse tumor cell lines (from UniProt Q8R550 1-709)
